Source: the supplement of paper PMC10849652
The list shows a part of the results.

Amino acid sequences for entries named in this document (tags omitted). A change or cut given only in a name is not applied to a line headed by its entry.
UniProt Q08174: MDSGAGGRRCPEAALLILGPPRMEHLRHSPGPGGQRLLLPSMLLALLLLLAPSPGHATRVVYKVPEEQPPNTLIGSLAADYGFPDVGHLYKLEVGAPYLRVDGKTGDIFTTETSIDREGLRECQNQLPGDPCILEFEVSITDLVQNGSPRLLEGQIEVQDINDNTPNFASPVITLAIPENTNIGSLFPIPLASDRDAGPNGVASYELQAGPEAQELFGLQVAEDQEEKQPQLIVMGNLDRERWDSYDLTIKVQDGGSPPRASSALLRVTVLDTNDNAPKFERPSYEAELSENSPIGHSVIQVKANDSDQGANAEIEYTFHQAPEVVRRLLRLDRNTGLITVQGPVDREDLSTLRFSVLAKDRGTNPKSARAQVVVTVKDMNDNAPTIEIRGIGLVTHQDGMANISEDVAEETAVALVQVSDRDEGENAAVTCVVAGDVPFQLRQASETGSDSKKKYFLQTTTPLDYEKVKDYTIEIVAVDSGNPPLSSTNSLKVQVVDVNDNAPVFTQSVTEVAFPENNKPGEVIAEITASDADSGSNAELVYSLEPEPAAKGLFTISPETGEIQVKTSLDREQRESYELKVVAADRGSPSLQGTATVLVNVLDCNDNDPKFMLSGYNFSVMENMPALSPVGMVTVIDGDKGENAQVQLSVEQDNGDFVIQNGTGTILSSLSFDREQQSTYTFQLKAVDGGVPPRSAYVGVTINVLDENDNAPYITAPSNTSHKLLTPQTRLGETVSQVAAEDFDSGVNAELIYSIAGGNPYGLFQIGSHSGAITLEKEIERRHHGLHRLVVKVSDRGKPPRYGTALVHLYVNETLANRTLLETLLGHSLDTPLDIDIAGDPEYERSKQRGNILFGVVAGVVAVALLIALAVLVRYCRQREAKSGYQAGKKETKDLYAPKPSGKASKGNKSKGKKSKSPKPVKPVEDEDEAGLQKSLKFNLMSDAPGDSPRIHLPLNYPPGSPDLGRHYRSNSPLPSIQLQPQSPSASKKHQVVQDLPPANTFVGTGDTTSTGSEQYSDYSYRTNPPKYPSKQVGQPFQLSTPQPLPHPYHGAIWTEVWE
UniProt O95613: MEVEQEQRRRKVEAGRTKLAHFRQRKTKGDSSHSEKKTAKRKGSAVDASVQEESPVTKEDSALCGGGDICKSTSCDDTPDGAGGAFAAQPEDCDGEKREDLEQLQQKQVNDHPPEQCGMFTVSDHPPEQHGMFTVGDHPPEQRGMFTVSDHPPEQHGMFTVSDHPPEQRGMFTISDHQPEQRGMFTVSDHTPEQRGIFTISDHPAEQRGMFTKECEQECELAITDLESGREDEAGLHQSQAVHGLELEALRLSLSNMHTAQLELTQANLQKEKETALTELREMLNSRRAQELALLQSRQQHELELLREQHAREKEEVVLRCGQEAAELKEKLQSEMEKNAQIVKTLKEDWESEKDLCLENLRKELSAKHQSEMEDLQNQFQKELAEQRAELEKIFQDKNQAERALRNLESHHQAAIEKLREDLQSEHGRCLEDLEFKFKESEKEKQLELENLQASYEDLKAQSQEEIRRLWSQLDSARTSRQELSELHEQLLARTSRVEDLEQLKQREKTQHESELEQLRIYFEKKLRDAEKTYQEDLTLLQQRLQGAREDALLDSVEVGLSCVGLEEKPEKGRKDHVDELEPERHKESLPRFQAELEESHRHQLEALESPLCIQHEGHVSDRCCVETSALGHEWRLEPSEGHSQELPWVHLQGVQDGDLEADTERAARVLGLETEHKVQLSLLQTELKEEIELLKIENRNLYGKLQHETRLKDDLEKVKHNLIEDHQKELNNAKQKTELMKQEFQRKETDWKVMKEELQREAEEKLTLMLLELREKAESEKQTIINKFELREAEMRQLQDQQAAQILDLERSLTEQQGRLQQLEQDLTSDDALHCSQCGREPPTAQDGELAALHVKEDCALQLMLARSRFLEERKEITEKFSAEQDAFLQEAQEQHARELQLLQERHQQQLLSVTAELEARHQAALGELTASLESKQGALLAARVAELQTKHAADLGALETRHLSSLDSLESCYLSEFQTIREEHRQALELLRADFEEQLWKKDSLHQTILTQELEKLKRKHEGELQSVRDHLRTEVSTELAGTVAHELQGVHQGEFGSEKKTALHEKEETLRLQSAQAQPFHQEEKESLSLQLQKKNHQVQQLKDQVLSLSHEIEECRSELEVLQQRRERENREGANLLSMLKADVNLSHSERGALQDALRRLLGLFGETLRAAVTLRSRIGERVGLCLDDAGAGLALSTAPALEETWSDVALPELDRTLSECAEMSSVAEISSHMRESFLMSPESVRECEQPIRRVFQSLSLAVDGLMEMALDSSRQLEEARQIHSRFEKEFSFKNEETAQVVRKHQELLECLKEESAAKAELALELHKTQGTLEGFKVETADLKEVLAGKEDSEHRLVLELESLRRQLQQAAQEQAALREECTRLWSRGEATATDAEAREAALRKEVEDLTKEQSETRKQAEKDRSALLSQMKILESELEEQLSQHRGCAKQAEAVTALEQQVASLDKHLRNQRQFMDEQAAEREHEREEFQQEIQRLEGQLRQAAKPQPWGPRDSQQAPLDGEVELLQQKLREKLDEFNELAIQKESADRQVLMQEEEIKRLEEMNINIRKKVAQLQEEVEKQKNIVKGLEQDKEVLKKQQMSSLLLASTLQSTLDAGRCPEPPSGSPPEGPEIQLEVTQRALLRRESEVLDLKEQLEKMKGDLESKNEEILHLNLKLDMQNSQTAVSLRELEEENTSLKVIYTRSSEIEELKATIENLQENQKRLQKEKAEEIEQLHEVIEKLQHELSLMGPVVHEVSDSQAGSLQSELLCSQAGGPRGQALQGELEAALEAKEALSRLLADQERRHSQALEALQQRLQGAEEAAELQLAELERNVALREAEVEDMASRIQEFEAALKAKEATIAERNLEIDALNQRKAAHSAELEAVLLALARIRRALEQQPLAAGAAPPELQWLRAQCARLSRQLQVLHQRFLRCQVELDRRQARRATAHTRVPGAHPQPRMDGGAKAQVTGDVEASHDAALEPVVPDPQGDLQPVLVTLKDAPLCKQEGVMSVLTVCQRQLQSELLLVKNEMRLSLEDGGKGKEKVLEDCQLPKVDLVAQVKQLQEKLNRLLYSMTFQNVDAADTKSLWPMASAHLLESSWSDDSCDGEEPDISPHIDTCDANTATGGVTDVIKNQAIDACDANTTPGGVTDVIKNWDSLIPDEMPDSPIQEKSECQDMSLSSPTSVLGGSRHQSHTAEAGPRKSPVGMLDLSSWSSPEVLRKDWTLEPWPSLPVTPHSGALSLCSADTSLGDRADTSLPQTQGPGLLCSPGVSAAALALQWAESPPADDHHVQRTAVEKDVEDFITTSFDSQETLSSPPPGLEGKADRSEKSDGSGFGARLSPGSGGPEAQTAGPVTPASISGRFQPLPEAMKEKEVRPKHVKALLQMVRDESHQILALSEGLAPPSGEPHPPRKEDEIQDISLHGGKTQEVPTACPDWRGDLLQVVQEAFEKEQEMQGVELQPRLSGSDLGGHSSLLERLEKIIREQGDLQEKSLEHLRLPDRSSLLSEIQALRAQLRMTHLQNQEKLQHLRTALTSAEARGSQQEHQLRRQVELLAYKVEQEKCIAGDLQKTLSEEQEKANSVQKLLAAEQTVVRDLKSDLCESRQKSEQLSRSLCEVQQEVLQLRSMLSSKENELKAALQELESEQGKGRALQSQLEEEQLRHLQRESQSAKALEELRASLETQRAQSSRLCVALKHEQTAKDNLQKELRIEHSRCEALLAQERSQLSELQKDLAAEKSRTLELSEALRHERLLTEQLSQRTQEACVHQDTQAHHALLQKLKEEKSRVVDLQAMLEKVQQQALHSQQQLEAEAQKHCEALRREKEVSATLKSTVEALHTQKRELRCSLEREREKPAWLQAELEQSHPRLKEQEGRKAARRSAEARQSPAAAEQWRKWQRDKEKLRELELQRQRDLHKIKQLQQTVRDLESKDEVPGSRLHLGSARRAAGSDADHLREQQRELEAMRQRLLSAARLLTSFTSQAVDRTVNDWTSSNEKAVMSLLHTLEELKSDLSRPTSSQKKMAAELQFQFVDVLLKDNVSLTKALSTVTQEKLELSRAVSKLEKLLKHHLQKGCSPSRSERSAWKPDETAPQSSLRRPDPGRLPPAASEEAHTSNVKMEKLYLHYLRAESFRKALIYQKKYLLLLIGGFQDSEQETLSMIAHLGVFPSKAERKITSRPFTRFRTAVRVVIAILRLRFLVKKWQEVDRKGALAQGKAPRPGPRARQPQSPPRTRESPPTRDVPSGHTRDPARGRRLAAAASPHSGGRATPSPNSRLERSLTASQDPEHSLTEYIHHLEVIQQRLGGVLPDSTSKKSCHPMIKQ
UniProt O15530: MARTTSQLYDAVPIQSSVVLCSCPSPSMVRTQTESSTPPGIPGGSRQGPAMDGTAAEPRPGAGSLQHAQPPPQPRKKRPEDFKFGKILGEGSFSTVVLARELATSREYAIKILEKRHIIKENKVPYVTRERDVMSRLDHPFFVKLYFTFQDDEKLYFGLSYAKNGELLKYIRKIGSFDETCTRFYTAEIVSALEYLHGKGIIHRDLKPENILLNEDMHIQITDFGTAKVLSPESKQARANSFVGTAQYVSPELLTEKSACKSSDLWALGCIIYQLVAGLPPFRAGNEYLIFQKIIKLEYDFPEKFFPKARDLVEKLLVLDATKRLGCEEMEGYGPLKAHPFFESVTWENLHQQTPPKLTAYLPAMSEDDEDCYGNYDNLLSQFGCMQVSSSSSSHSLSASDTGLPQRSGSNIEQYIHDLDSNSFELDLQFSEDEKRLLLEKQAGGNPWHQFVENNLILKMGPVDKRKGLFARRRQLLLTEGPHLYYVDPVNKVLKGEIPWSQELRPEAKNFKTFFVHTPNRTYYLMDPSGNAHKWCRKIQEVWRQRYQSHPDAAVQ
UniProt Q5EBL8: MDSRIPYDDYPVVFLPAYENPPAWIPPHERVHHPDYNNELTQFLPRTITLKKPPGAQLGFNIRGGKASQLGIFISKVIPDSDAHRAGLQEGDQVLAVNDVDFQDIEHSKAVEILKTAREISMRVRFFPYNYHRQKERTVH
UniProt Q9BUL8: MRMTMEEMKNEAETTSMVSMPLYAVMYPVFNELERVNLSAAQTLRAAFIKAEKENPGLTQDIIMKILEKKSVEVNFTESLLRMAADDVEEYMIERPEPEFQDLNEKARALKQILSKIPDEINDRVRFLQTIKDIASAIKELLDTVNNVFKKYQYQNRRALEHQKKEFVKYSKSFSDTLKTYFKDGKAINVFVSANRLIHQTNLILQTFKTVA
UniProt Q86W56: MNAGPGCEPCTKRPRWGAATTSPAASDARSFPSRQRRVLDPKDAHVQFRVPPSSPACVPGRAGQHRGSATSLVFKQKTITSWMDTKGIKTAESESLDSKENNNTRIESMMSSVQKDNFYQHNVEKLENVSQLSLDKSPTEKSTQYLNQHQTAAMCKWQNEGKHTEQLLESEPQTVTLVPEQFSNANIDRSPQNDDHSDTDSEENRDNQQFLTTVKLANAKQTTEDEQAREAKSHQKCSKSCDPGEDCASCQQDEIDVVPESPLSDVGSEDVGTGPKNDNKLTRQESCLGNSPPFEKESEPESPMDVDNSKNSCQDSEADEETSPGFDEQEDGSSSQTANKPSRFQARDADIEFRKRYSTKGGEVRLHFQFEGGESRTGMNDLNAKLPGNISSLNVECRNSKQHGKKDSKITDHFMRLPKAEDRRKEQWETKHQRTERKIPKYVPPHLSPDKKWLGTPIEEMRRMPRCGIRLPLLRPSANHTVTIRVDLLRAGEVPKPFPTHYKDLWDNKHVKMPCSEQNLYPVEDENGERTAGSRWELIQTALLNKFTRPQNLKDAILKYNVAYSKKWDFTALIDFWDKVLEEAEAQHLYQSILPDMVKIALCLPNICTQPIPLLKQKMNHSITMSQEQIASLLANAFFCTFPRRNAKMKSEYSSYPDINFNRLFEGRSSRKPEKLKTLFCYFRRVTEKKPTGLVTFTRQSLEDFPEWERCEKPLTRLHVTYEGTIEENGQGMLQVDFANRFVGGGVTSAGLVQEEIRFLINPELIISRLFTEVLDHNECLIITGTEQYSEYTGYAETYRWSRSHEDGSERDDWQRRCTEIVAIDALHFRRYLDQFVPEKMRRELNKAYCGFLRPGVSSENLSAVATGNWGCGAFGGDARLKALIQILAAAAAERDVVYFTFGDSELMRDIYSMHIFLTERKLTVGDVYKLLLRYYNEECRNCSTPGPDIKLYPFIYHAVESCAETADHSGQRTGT
UniProt O00764: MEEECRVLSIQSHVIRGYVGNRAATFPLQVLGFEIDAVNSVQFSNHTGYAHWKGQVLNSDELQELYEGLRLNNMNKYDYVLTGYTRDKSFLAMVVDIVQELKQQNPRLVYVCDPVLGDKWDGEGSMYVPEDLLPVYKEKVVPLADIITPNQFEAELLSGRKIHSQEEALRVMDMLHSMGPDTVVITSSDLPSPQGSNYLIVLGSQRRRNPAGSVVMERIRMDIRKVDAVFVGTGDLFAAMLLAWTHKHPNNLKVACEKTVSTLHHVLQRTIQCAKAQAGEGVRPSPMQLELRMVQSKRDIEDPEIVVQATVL

Legend:
Test in all cases: log2 fold change, soluble protein after heating vs DMSO (PISA); higher = thermal stabilisation; K562 cells, 10 uM, 30 min; active = over 0.2 and 3.5 SD of the protein, either way, in both replicates (recomputed)
[1] = compound: Cc1sc2c(c1C)C(c1ccc(Cl)cc1)=N[C@@H](CC(=O)OC(C)(C)C)c1nnc(C)n1-2
Procedure, shortened: (§1)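 Quantification of soluble protein used TMTpro 16plex LC-MS/MS, with channel sums equalised. Samples were the supernatant after 21,000xg for 90 min of pooled aliquots from K562 cells (2×10^6 cells/mL) treated with 10 μM compound for 30 min, heated for 3 min over 48°C-58°C, and extracted in PBS with 0.5% NP-40 at 4°C. Values, from duplicates, describe thermal stability against control samples on a log2 fold-change scale.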

[2] = compound: C1=CC=C(C=C1)[C@H](COC2=CC3=C(C=C2)NC(=O)N3)NC(=O)C4=CC=CN(C4=O)CC5=CC(=C(C=C5)F)F
Procedure, shortened: as §1

[3] = compound: CC1=C(SC2=C1C(=N[C@H](C3=NN=C(N32)C)CC(=O)N)C4=CC=C(C=C4)Cl)C
Procedure, shortened: as §1

[4] = compound: c1ccc([C@@H]2C[C@H]2NC2CCNCC2)cc1
Procedure, shortened: as §1

[5] = compound: CC1=C2C(=CC=C1)N=C(N(C2=O)C3=CC=CC=C3C)CN4C=NC5=C(N=CN=C54)N
Procedure, shortened: as §1

Measured: log2 fold change

PCDH1 isoform 2 (UniProt Q08174)
inactive: [1] -0.072

PAXBP1 (UniProt Q9Y5B6)
inactive: [2] 0.114 | [1] 0.031

PDCD2 (UniProt Q16342)
inactive: [2] -0.036 | [3] -0.075 | [1] 0.12 | [4] 0.077

PCNT (UniProt O95613)
inactive: [2] 0.037 | [3] -0.067 | [5] 0.11 | [1] 0.064 | [4] 0.105

PEMT isoform 2 (UniProt Q9UBM1)
inactive: [1] -0.019

PDPK1 (UniProt O15530)
inactive: [3] 0.065 | [5] 0.014 | [1] -0.038 | [4] -0.018

PAXIP1 (UniProt Q6ZW49)
inactive: [2] -0.139 | [3] -0.146 | [5] 0.096 | [1] 0.133 | [4] 0.112

PDZD11 isoform 2 (UniProt Q5EBL8)
inactive: [2] -0.001 | [5] 0.129 | [1] 0.01

PCNP (UniProt Q8WW12)
inactive: [2] 0.024 | [3] 0.011 | [5] -0.021 | [1] 0.025 | [4] 0.032

PCTP (UniProt Q9UKL6)
inactive: [2] -0.033 | [3] -0.101 | [5] 0.028 | [1] -0.023 | [4] 0.018

PBX2 (UniProt P40425)
inactive: [2] -0.052 | [3] 0.082 | [5] -0.011 | [1] 0.051 | [4] -0.016

PASK (UniProt Q96RG2)
inactive: [2] -0.102 | [3] 0.047 | [5] 0.031 | [1] 0.025 | [4] -0.001

PAN2 (UniProt Q504Q3)
inactive: [2] -0.298 | [5] 0.053

PDHB (UniProt P11177)
inactive: [2] 0.034 | [3] -0.026 | [5] -0.002 | [1] -0.033 | [4] -0.045

PDLIM1 (UniProt O00151)
inactive: [2] 0.01 | [3] 0.038 | [5] -0.017 | [1] -0.031 | [4] 0.005

PANK3 (UniProt Q9H999)
inactive: [2] 0.044 | [3] 0.072 | [1] -0.059 | [4] 0.267

PDE6C (UniProt P51160)
inactive: [2] -0.107 | [3] 0.052 | [5] 0.142 | [1] 0.015 | [4] 0.008

PCMTD2 (UniProt Q9NV79)
inactive: [1] 0.023

PEX10 isoform 2 (UniProt O60683)
inactive: [3] 0.019 | [1] 0.007 | [4] -0.053

PABPN1 (UniProt Q86U42)
inactive: [2] 0.077 | [3] -0.293 | [4] 0.118

PCBP2 (UniProt F8VZX2)
inactive: [2] -0.1 | [3] -0.107 | [4] 0.019

PAFAH1B1 (UniProt I3L3N5)
inactive: [2] -0.077 | [3] 0.072 | [5] 0.192 | [4] 0.098

PCSK6 isoform 7 (UniProt P29122)
inactive: [2] -0.08 | [3] 0.064 | [5] 0.23 | [4] 0.073

PALM (UniProt O75781)
inactive: [5] 0.137

PCIF1 (UniProt Q9H4Z3)
inactive: [2] 0.024 | [5] 0.077 | [1] -0.063

PDCD10 (UniProt Q9BUL8)
inactive: [2] -0.018 | [3] 0.026 | [5] 0.038 | [1] -0.01 | [4] -0.028

PDIA4, A0A499FI48
inactive: [5] -0.2 | [1] 0.036

PDHA1 isoform 4 (UniProt P08559)
inactive: [2] 0.035 | [3] -0.123 | [5] -0.029 | [1] 0 | [4] -0.047

PARG (UniProt Q86W56)
inactive: [2] -0.043 | [3] -0.013 | [5] 0.018 | [1] -0.009 | [4] -0.075

2 records picked at random from the list so far:
PARG (UniProt Q86W56)
inactive: [2] -0.043 | [3] -0.013 | [5] 0.018 | [1] -0.009 | [4] -0.075

PCIF1 (UniProt Q9H4Z3)
inactive: [2] 0.024 | [5] 0.077 | [1] -0.063

Further results follow:

PCNX1 (UniProt Q96RV3)
inactive: [2] 0.064 | [5] 0.103 | [1] -0.122

PDXK (UniProt O00764)
inactive: [2] 0.007 | [3] -0.026 | [5] -0.013 | [1] 0.023 | [4] 0.027

PBK (UniProt Q96KB5)
inactive: [2] -0.06 | [3] 0.016 | [5] 0.067 | [1] 0.023 | [4] -0.016
